Results are given in words; binding and its absence hold for the method and conditions named. Binding seen in cells or lysates may run through a third protein. Some binding calls cover weakened binding; strength is not graded here. Blank lines part the entries; values can stand above or below the substance they belong to.
Tests used:
[1] = target: Flag-tagged KEAP1 (human) (UniProt Q14145); test: co-IP; HEK-293T cells co-transfected with NRF2, Flag-KEAP1 and/or HA-PLEC (increasing PLEC); anti-Flag IP; immunoblot
[2] = target: KEAP1 (human (endogenous in KYSE450)) (UniProt Q14145); test: co-IP; endogenous proteins in KYSE450 lysate (cells with shC or shp63 in Fig. 2L); IP with anti-KEAP1 or anti-PLEC, normal IgG as control; lysis buffer 50 mM Tris HCl pH 7.4, 150 mM NaCl, 1 mM EDTA, 1% Nonidet P-40; overnight 4 °C; immunoblot
[3] = target: HA-tagged PLEC^WT (in KYSE450) (human) (UniProt Q15149); test: co-IP; KYSE450 cells expressing HA-tagged PLEC^WT, PLEC^ΔEQGE or PLEC^EQGA; anti-HA IP; co-precipitating endogenous KEAP1 by immunoblot
[4] = target: Plectin (PLEC) (human (endogenous in KYSE450)) (UniProt Q15149); test: co-IP; endogenous proteins in KYSE450 lysate (cells with shC or shp63 in Fig. 2L); IP with anti-KEAP1 or anti-PLEC, normal IgG as control; lysis buffer 50 mM Tris HCl pH 7.4, 150 mM NaCl, 1 mM EDTA, 1% Nonidet P-40; overnight 4 °C; immunoblot

Amino acid sequences for entries named in this document (tags omitted).
UniProt Q14145: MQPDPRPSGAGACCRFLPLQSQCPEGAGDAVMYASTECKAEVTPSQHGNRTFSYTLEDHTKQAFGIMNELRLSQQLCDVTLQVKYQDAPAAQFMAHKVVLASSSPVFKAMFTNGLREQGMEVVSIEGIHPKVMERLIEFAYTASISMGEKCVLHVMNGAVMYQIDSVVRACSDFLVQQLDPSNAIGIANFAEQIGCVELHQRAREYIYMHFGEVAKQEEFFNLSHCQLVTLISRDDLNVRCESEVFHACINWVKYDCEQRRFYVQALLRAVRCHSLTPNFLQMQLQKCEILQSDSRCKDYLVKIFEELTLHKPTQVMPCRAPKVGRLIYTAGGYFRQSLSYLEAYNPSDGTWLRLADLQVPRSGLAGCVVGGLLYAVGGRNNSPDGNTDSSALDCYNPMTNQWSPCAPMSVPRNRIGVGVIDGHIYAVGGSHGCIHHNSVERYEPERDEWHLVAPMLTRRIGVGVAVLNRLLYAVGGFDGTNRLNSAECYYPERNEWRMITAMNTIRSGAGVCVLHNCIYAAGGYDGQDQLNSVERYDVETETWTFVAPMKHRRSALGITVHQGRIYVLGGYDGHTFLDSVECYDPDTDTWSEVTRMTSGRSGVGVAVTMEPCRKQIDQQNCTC
UniProt Q15149: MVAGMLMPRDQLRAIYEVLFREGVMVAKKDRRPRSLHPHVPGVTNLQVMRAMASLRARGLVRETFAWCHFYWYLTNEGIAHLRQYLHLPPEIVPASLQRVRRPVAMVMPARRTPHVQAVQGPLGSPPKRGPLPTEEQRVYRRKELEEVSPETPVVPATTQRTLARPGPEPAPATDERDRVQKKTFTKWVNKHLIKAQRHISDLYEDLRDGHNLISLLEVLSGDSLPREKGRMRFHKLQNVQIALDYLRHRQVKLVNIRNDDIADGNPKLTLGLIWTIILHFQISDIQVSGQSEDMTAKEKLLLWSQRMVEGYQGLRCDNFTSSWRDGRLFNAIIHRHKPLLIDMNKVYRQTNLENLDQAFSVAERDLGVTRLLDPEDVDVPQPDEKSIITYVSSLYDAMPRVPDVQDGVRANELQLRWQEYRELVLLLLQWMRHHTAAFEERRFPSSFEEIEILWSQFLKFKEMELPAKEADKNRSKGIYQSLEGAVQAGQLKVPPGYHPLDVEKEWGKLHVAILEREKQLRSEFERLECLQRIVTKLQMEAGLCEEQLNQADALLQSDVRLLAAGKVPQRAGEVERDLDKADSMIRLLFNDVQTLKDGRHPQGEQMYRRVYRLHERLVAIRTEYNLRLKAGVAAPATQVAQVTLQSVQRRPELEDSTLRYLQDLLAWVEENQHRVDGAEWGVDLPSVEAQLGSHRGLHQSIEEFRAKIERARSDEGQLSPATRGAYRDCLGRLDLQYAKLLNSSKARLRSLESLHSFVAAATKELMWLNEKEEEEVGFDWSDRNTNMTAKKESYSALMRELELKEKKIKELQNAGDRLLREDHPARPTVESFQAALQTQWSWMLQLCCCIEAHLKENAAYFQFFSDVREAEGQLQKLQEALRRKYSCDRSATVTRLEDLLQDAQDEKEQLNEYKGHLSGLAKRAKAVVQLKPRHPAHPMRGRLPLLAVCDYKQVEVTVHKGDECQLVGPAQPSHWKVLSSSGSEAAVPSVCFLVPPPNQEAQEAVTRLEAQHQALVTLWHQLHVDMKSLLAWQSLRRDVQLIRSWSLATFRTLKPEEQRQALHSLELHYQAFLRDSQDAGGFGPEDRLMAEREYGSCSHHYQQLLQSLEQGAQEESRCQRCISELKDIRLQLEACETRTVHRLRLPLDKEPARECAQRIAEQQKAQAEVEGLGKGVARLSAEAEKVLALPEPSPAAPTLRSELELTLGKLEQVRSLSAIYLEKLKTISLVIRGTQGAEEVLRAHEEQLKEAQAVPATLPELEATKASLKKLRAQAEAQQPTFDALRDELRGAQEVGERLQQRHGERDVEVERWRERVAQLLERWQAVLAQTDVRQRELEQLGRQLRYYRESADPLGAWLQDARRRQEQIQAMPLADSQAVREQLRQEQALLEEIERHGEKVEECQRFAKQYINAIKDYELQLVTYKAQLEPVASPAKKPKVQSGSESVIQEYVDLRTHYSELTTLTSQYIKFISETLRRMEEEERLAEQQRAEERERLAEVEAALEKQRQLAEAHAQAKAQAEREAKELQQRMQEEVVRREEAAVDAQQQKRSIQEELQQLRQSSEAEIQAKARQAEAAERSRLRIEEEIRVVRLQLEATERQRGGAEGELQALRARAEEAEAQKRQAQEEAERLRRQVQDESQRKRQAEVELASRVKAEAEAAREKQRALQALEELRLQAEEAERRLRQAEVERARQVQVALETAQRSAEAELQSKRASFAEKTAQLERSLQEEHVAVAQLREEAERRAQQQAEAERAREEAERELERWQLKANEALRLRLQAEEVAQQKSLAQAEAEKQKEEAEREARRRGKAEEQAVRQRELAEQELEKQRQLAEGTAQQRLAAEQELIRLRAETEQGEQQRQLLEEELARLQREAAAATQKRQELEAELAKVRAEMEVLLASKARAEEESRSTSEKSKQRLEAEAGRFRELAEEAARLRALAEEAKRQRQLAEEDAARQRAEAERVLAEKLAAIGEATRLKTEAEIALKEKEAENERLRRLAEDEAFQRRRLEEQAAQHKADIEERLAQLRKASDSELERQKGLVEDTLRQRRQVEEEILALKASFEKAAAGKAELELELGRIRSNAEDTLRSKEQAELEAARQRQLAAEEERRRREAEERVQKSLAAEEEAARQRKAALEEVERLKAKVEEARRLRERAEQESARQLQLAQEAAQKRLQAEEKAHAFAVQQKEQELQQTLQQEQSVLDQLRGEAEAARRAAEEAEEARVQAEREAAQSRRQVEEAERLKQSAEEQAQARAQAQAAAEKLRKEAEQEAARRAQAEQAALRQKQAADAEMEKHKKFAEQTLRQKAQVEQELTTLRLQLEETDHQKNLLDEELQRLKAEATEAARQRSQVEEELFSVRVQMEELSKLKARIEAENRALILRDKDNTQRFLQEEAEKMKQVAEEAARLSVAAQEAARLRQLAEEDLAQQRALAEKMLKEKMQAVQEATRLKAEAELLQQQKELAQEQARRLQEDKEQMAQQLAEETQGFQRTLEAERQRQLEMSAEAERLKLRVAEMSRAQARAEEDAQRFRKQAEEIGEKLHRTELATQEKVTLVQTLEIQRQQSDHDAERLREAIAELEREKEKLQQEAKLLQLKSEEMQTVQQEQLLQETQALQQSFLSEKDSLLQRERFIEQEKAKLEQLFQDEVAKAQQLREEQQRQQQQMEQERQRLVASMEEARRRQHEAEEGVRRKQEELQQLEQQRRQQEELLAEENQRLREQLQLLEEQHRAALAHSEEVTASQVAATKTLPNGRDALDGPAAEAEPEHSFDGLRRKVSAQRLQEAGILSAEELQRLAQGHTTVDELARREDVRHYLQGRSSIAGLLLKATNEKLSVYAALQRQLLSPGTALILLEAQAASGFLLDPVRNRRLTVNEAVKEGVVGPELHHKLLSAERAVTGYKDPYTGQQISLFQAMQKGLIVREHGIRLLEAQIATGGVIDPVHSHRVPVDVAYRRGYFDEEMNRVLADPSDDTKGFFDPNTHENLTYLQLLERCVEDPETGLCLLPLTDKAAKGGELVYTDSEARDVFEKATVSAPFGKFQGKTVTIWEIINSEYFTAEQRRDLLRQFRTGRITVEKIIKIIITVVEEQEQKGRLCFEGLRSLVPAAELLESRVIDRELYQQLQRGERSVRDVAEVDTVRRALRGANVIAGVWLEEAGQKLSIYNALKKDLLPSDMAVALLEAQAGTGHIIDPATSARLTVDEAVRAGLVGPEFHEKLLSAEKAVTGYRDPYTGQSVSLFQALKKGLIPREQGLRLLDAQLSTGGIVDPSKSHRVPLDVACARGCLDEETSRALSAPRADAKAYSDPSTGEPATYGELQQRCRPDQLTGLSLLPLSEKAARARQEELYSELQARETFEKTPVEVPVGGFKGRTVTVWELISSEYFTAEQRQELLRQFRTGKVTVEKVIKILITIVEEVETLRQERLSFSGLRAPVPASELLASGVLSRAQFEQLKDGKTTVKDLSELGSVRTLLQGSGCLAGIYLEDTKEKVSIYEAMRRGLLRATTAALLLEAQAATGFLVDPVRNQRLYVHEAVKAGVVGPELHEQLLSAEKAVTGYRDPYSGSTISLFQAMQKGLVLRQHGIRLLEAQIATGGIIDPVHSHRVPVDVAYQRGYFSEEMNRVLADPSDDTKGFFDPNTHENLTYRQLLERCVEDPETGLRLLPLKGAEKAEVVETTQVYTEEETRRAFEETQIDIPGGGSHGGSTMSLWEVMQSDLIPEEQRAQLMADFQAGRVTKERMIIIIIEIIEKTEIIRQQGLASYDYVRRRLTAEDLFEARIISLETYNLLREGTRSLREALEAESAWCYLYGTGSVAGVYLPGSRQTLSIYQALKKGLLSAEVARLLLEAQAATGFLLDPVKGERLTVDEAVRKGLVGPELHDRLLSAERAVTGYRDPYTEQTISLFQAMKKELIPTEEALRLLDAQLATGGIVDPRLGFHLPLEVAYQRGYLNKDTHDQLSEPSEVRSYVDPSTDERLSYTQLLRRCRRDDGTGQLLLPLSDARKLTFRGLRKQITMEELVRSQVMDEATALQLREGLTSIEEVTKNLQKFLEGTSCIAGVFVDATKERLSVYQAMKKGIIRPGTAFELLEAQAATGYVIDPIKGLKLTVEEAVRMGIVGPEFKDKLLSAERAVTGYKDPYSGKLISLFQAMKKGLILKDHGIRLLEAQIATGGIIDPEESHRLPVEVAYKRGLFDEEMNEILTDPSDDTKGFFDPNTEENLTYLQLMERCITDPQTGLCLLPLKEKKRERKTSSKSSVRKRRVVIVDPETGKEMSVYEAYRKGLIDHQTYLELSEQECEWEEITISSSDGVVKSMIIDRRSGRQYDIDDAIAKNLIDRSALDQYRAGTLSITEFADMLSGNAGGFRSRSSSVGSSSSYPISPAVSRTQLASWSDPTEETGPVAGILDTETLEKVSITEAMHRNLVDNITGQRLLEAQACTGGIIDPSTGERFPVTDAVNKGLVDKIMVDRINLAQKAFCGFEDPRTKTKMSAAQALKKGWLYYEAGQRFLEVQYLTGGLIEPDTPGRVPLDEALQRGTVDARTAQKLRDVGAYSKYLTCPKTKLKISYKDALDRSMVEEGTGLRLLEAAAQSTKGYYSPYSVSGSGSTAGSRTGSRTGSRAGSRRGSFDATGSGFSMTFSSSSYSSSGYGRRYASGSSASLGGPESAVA

binding [1]: binds
Substance: HA-tagged PLEC (in HEK-293T) (from UniProt Q15149 1-4684)

binding [2]: binds
Substance: Plectin (PLEC) (from UniProt Q15149 1-4684)

binding [3]: binds
binding [4]: binds
Substance: KEAP1 (from UniProt Q14145 1-624)

Reference: article PMC11538512
